{"sequences": {"note": "Protein sequences, listed by entry. Tags and fused reporters are not part of them. Lines headed by an entry give the natural chain unless they say otherwise; changes in a name come on top. Residues count along the entry.", "UniProt P25911": "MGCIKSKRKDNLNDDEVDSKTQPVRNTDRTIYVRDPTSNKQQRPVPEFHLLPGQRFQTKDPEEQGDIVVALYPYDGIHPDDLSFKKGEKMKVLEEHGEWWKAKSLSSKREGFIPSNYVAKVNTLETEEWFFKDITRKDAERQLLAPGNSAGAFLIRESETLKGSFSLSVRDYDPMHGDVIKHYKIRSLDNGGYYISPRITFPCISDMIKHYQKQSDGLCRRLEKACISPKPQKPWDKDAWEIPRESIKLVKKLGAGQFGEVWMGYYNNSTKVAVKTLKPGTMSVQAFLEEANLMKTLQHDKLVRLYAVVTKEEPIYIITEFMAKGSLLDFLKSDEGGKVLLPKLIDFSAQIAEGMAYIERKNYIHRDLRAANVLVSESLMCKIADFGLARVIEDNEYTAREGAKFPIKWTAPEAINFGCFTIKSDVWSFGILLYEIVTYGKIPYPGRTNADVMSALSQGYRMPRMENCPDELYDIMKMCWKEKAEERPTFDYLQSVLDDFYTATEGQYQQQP", "UniProt P07948, residues 1-230": "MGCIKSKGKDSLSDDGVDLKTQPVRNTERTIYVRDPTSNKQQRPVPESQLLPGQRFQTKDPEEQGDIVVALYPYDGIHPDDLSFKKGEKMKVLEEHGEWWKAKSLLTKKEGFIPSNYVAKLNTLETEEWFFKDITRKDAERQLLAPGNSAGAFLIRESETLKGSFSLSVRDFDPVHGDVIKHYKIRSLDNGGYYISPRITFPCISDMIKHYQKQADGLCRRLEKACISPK", "UniProt Q9CQY1": "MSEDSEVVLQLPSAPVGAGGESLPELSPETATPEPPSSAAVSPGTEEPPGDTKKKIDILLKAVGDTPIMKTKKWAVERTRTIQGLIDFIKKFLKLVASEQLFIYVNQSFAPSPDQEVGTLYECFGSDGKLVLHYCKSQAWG", "UniProt P18760": "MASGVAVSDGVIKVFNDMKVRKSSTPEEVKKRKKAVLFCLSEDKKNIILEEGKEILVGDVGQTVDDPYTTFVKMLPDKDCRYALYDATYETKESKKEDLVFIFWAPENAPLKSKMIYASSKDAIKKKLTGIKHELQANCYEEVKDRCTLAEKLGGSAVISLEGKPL"}, "source": "paper PMC4703367", "key": {"[1]": {"target": "Lyn (mouse (endogenous in MH-S)) (UniProt P25911)", "experiment": "co-IP; lysates of MH-S cells infected with PAO1 (MOI = 10, 1 h); Protein A/G-agarose beads with the related antibody (Lyn antibody named for Fig 6K and S6J), immunoblotting; Fig 6K with Ctrl or Lyn siRNA"}, "GST-Lyn 1–230 [2]": {"target": "GST-Lyn 1–230 (UniProt P07948)", "experiment": "pull-down; GST-Lyn fragments on immobilized glutathione agarose beads incubated with whole cell lysates of MH-S cells infected with PAO1 (MOI = 10, 1 h); immunoblotting; only the target purified"}, "GST-Lyn 1–230 [3]": {"target": "GST-Lyn 1–230 (UniProt P07948)", "experiment": "pull-down; GST-Lyn fragments incubated with lysates of primary mouse AM infected with Pa; immunoblotting; only the target purified"}}, "note": "These are yes or no findings as the source states them, for the method shown. In cells and extracts the contact can be indirect. Some results given as binding are weak or reduced against the parent protein; the word gives no strength."}
{"substance": "Atg12-Atg5 (from UniProt Q9CQY1 1-141; Q99J83 1-275) (complex)", "values": [{"measurement": "binding", "setting": "[1]", "value": "binds"}, {"measurement": "binding", "setting": "GST-Lyn 1–230 [2]", "value": "binds"}, {"measurement": "binding", "setting": "GST-Lyn 1–230 [3]", "value": "binds"}]}
{"substance": "Cofilin-1 (from UniProt P18760 1-166)", "values": [{"measurement": "binding", "setting": "[1]", "value": "binds"}]}
